Results taken from PMC8801411.
Results are given in words; binding and its absence hold for the method and conditions named. Binding seen in cells or lysates may run through a third protein. Where a sequence is shown, tags or fusion partners need not be part of it.

Sequences of proteins named here, by UniProt entry; tags and fusion partners are left off.
UniProt P22579: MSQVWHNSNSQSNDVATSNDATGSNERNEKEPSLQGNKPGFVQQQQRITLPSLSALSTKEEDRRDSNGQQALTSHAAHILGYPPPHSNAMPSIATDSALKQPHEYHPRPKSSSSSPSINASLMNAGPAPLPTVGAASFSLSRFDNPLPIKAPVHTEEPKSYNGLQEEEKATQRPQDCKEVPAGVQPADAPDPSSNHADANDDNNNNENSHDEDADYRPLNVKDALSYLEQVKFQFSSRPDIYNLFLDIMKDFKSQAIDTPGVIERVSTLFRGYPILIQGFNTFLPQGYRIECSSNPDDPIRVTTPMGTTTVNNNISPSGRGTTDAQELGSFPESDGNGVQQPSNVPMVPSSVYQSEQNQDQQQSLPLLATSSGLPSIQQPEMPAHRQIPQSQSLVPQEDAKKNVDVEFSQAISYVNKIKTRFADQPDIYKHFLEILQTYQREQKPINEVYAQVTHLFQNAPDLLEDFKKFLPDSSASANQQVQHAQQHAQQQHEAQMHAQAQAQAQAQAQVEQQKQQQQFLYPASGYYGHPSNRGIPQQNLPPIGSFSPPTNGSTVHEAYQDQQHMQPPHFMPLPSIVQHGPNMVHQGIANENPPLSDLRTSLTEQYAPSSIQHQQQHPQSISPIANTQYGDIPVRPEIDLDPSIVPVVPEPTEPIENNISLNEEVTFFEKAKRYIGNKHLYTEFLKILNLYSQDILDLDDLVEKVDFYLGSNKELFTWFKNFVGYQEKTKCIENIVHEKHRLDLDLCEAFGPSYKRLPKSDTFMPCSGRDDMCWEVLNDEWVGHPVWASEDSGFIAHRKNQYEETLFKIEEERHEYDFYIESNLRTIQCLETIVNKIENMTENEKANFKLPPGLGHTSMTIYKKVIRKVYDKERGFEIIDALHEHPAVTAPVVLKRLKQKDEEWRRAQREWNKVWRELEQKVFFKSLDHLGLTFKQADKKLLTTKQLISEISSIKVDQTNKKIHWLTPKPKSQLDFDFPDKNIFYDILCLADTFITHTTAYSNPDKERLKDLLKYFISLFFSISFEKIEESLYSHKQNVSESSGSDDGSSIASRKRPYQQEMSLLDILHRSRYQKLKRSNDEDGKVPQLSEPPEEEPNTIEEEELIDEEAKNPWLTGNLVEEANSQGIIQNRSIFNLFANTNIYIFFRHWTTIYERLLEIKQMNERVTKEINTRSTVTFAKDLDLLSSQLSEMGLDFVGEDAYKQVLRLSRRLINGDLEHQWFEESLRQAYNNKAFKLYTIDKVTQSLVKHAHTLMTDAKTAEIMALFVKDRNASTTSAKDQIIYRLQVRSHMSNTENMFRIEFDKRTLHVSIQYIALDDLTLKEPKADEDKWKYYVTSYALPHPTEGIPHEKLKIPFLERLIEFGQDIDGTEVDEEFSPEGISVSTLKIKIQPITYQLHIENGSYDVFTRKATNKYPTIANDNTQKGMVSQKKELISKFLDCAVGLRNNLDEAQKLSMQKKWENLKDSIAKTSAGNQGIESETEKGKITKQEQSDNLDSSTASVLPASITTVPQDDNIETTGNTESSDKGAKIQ

Target: T1, GST-Gal80 (full-length) (S. cerevisiae) (UniProt P04387)
T1 sequence: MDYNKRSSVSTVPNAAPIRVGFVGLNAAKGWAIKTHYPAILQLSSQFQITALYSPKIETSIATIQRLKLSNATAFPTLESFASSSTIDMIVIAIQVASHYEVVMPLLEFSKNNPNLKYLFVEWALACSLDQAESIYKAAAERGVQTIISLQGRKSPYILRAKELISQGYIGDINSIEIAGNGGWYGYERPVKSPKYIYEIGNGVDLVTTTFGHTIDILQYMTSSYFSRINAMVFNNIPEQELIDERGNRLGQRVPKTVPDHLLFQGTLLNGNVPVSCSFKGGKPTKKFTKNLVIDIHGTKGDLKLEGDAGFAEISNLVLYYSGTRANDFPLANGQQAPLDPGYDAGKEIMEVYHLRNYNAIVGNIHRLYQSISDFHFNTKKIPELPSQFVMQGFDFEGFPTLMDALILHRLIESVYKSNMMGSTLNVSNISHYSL
Assay: pull-down; GST-Gal80 (full-length) immobilised on GSH sepharose, incubated with yeast total protein extract containing HA3-Sin3; washing of intermediary stringency; elution with 10 mM free GSH; SDS-PAGE and blot with anti-HA-peroxidase conjugate; only the target purified

HA3-tagged Sin3 (full-length) (from UniProt P22579 1-1536)
binding: no binding
